Primary screen of a compound library

The chains behind the UniProt entries cited, without tags or fusion partners.
UniProt E9BF75, entry or part of it: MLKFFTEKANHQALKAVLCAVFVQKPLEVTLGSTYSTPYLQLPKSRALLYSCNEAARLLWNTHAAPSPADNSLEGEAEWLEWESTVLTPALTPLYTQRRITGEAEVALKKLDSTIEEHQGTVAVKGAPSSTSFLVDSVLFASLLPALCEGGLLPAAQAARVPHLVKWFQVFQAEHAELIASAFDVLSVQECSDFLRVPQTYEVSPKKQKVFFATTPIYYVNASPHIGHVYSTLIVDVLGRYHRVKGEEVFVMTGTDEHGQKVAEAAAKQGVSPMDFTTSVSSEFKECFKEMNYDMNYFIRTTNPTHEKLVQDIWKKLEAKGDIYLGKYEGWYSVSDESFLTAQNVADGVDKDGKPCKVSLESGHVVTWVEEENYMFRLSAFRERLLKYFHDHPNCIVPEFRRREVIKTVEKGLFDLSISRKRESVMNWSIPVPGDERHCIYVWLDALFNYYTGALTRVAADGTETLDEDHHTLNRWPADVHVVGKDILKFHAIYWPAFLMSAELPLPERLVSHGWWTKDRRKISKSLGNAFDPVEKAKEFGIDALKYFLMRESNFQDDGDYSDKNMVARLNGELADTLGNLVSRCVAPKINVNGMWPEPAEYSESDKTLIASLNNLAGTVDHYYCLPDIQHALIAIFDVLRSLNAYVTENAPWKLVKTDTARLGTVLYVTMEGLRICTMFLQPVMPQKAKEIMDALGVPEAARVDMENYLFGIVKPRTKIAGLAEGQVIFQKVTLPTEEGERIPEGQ

Source: ChEMBL document CHEMBL3988442, “University of Dundee, Small-Polar-MMV Screening Library” (2021).

Results are percentages, as filed.
The record does not define 0% and 100%; most values in the screen are far below 50% and negative numbers occur (in some assays of this library far below -100).
Compounds were drawn at random from those tested, without regard to their results.

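Primary screen of methionyl-tRNA synthetase; the read-out is not stated. Target: Methionyl-tRNA synthetase (putative), Leishmania donovani (UniProt E9BF75). The test concentration is not given. The values are filed as inhibition. Of about 68,000 compounds tested this way, about 24 (0.035%) reached 50% or more in at least one test.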

Compound	inhibition
CCc1nccn1C1CCCN(C(=O)c2ccc3nnc(C)n3c2)C1 (centres undefined)	20.8%
COc1ccc(OC)c(C2CCN(C(=O)CCc3n[nH]c(N)n3)C2)c1 (centres undefined)	11.25%
Cc1nc(-c2cccc(C(=O)O)c2)c[nH]1	3.78%
Cc1nc(CN2CC3(CCN(c4nccs4)C3)CC2=O)cs1 (centres undefined)	20.46%
COc1ccccc1C(=O)NS(=O)(=O)c1cccc(C#N)c1	9.218%
N#CC(NC(=O)CCCOc1cccnc1)c1ccc(F)cc1F (centres undefined)	14.04%
CN(C)c1ncc(CNC(=O)Nc2ccccc2F)n1C	7.436%
Cc1nccc(NCc2cc3n(n2)CCCN(S(C)(=O)=O)C3)n1	10.44%
Cc1cnc(CNC(=O)[C@@H]2CC[C@@H]3[C@@H](CCN3Cc3ccco3)O2)cn1	4.839%
COCC(=O)N[C@H]1C[C@@H](Cc2cc(CN3CCOCC3)on2)C1(C)C	6.189%
CC(NCCc1nccn1Cc1ccccc1)c1cccs1 (centres undefined)	3.846%
O=C(NCC1CCOCC1)[C@@H]1C[C@@H]2[C@@H](CCN2Cc2ccoc2)O1	20.81%
COc1cccc(CCC(=O)N2CCCCC2Cn2cccn2)c1 (centres undefined)	13.19%
Cc1nc(-c2cccs2)ccc1C(=O)N1CCN(CCO)CC1	5.651%
CCC1CCCN(CC(=O)Nc2oc(C)c3c(C)n[nH]c(=O)c23)C1 (centres undefined)	6.266%
O=C(c1ccc(Cl)cn1)N1CCC(COCc2ccccc2)C1 (centres undefined)	3.896%
CC(C)OC(=O)CNC(=O)Nc1ccc(-c2nc(C(C)C)no2)cc1	6.162%
O=C(NCCCn1cccn1)N1CCCC1c1ccncc1 (centres undefined)	5.854%
Cc1ccc(-c2nnc([C@H]3CCN(C4CCC4)C3)o2)cc1	-0.339%
CC(C)C(=O)N1CCC2(CCCN(CCOc3ccccc3)C2)C1 (centres undefined)	7.744%
CNC(=O)[C@@H]1C[C@@H](n2cc(-c3ccc(CN4CC=CC4)cc3)nn2)CN1	3.916%
CC1CCc2n[nH]c(C(=O)N3CCc4c(nc(N(C)C)[nH]c4=O)C3)c2C1 (centres undefined)	10.99%

Once more, the final 2:

* CNC(=O)[C@@H]1C[C@@H](n2cc(-c3ccc(CN4CC=CC4)cc3)nn2)CN1 | 3.916%
* CC1CCc2n[nH]c(C(=O)N3CCc4c(nc(N(C)C)[nH]c4=O)C3)c2C1 (centres undefined) | 10.99%